US8476297B2, “TRP-M8 receptor ligands and their use in treatments” (Amgen Inc., priority 2007, dated 2013)
Structures can show the parent of a compound that is named as a salt. Some results were stated once for a whole list of compounds, not compound by compound.

The chains behind the UniProt entries cited, without tags or fusion partners.
UniProt Q7Z2W7, whole entry: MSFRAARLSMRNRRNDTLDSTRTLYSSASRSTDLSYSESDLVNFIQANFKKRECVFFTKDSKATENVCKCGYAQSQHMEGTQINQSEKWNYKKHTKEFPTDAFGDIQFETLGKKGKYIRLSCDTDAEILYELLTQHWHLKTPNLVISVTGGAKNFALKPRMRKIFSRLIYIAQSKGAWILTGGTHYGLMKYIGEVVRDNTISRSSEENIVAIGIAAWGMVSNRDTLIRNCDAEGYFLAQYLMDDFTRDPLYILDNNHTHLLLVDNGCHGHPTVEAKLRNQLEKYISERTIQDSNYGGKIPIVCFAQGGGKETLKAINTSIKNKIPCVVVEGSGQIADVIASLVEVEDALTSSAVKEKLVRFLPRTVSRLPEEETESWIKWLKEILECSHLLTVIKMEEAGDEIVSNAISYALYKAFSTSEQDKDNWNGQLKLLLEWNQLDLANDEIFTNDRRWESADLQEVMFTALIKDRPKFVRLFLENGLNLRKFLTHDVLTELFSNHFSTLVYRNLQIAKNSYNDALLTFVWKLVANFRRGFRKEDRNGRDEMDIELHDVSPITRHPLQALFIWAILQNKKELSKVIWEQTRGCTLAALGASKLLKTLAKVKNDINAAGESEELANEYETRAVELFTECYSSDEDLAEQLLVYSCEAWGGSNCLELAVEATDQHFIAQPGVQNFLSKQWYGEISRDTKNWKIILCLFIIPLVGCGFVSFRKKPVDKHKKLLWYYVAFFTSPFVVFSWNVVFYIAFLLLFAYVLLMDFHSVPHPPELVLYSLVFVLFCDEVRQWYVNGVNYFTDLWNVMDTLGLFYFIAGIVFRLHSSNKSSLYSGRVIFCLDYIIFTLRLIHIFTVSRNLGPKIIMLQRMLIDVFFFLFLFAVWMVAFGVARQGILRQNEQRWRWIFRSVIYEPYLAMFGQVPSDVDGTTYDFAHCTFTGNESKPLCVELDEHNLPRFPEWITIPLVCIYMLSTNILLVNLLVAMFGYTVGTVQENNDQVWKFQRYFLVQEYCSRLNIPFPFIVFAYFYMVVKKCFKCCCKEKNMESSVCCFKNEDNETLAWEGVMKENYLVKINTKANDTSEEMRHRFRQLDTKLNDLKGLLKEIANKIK

Target: T1, human TRPM8 (Homo sapiens, UniProt Q7Z2W7)
T1 construct: expressed in transfected cells; host or cells: CHO cells (T-REx tetracycline-inducible system, Invitrogen), co-transfected with pcDNA3.1 aequorin
Experiment: Luminescence readout assay for measuring intracellular calcium (aequorin), cold buffer activation
Type: cell-based
Details: stable CHO cells expressing human TRPM8 and aequorin; antagonist added 1 min prior to addition of cold buffer (<10° C.)

IC50, < 5 µM:
C[C@@H]1Cc2ccccc2[C@@H](c2ccc(C(F)(F)F)cc2)N1C(=O)Nc1ccc(F)cc1 (racemic) [Example 5, (1R,3R)—N-(4-Fluorophenyl)-3-methyl-1-(4-(trifluoromethyl)phenyl)-3,4-dihydroisoquinoline-2(1H)-carboxamide(1S,3S)—N-(4-Fluorophenyl)-3-methyl-1-(4-(trifluoromethyl)phenyl)-3,4-dihydroisoquinoline-2(1H)-carboxamide]
C[C@@H]1CN(C(=O)Nc2ccc(F)cc2)[C@@H](c2ccc(C(F)(F)F)cc2)c2ccccc21 (racemic) [Example 38, (1S,4S)—N-(4-Fluorophenyl)-4-methyl-1-(4-(trifluoromethyl)phenyl)-3,4-dihydroisoquinoline-2(1H)-carboxamide and (1R,4R)—N-(4-fluorophenyl)-4-methyl-1-(4-(trifluoromethyl)phenyl)-3,4-dihydroisoquinoline-2(1H)-carboxamide]
C[C@H]1CN(C(=O)Nc2ccc(F)cc2)[C@@H](c2ccc(C(F)(F)F)cc2)c2ccccc21 (racemic) [Example 39, (1S,4R)—N-(4-Fluorophenyl)-4-methyl-1-(4-(trifluoromethyl)phenyl)-3,4-dihydroisoquinoline-2(1H)-carboxamide and (1R,4S)—N-(4-Fluorophenyl)-4-methyl-1-(4-(trifluoromethyl)phenyl)-3,4-dihydroisoquinoline-2(1H)-carboxamide]
C[C@H]1Cc2ccccc2[C@@H](c2ccc(C(F)(F)F)cc2)N1C(=O)Nc1ccc(F)cc1 (single isomer, unassigned) [Example 6]
C[C@@H]1Cc2ccccc2[C@@H](c2ccc(C(F)(F)F)cc2)N1C(=O)Nc1ccc(F)cc1 (single isomer, unassigned) [Example 7]
CCOC(=O)N1CCc2ccccc2C1c1ccc(N(C)C)cc1 (stereo not shown) [Example 1, Ethyl 1-(4-(dimethylamino)phenyl)-3,4-dihydroisoquinoline-2(1H)-carboxylate]
CCOC(=O)N1CCc2ccccc2C1c1ccc(-c2ccccc2)cc1 (stereo not shown) [Example 2, Ethyl 1-(4-biphenyl)-3,4-dihydroisoquinoline-2(1H)-carboxylate]
CCOC(=O)N1CCc2ccccc2C1c1ccc(C(F)(F)F)cc1 (stereo not shown) [Example 3, Ethyl 1-(4-(trifluoromethyl)phenyl)-3,4-dihydroisoquinoline-2(1H)-carboxylate]
O=C(Nc1ccc(F)cc1)N1CCc2cccc(F)c2C1c1ccc(C(F)(F)F)cc1 (stereo not shown) [Example 8, 8-Fluoro-N-(4-fluorophenyl)-1-(4-(trifluoromethyl)phenyl)-3,4-dihydroisoquinoline-2(1H)-carboxamide]
O=C(Nc1ccccc1)N1CCc2ccccc2C1c1ccc(C(F)(F)F)cc1 (stereo not shown) [Example 9, N-Phenyl-1-(4-(trifluoromethyl)phenyl)-3,4-dihydroisoquinoline-2(1H)-carboxamide]
O=C(Cc1ccccc1)N1CCc2ccccc2C1c1ccc(C(F)(F)F)cc1 (stereo not shown) [Example 10, 2-Phenyl-1-(1-(4-(trifluoromethyl)phenyl)-3,4-dihydroisoquinolin-2(1H)-yl)ethanone]
O=C(Oc1ccccc1)N1CCc2ccccc2C1c1ccc(C(F)(F)F)cc1 (stereo not shown) [Example 11, Phenyl 1-(4-(trifluoromethyl)phenyl)-3,4-dihydroisoquinoline-2(1H)-carboxylate]
O=C(NCc1ccccc1)N1CCc2ccccc2C1c1ccc(C(F)(F)F)cc1 (stereo not shown) [Example 12, N-Benzyl-1-(4-(trifluoromethyl)phenyl)-3,4-dihydroisoquinoline-2(1H)-carboxamide]
O=C(NC1CCCCC1)N1CCc2ccccc2C1c1ccc(C(F)(F)F)cc1 (stereo not shown) [Example 13, N-Cyclohexyl-1-(4-(trifluoromethyl)phenyl)-3,4-dihydroisoquinoline-2(1H)-carboxamide]
O=C(Cc1ccc(F)cc1)N1CCc2ccccc2C1c1ccc(C(F)(F)F)cc1 (stereo not shown) [Example 15, 2-(4-Fluorophenyl)-1-(1-(4-(trifluoromethyl)phenyl)-3,4-dihydro-isoquinolin-2(1H)-yl)ethanone]
O=C(Oc1ccc([N+](=O)[O-])cc1)N1CCc2ccccc2C1c1ccc(C(F)(F)F)cc1 (stereo not shown) [Example 16, 4-Nitrophenyl 1-(4-(trifluoromethyl)phenyl)-3,4-dihydroisoquinoline-2(1H)-carboxylate]
NC(=O)N1CCc2ccccc2C1c1ccc(C(F)(F)F)cc1 (stereo not shown) [Example 18, 1-(4-(Trifluoromethyl)phenyl)-3,4-dihydroisoquinoline-2(1H)-carboxamide]
NC(=S)N1CCc2ccccc2C1c1ccc(C(F)(F)F)cc1 (stereo not shown) [Example 19, 1-(4-(Trifluoromethyl)phenyl)-3,4-dihydroisoquinoline-2(1H)-carbothioamide]
CC(C)(C)OC(=O)N1CCC[C@@H](NC(=O)N2CCc3ccccc3C2c2ccc(C(F)(F)F)cc2)C1 (stereo partly drawn) [Example 20, (3R)-tert-Butyl 3-(1-(4-(trifluoromethyl)phenyl)-1,2,3,4-tetrahydroisoquinoline-2-carboxamido)piperidine-1-carboxylate]
CC(C)(C)OC(=O)N1CCc2ccccc2C1c1ccc(C(F)(F)F)cc1 (stereo not shown) [Example 21, tert-Butyl 1-(4-(trifluoromethyl)phenyl)-3,4-dihydroisoquinoline-2(1H)-carboxylate]
CN(C(=O)N1CCc2ccccc2C1c1ccc(C(F)(F)F)cc1)c1ccccc1 (stereo not shown) [Example 22, N-Methyl-N-phenyl-1-(4-(trifluoromethyl)phenyl)-3,4-dihydroisoquinoline-2(1H)-carboxamide]
O=C(N[C@@H]1CCCNC1)N1CCc2ccccc2C1c1ccc(C(F)(F)F)cc1 (stereo partly drawn) [Example 24, N—((R)-Piperidin-3-yl)-1-(4-(trifluoromethyl)phenyl)-3,4-dihydroisoquinoline-2(1H)-carboxamide]
CC(C)(O)C(=O)N1CCc2ccccc2C1c1ccc(C(F)(F)F)cc1 (stereo not shown) [Example 25, 2-Hydroxy-2-methyl-1-(1-(4-(trifluoromethyl)phenyl)-3,4-dihydroisoquinolin-2(1H)-yl)propan-1-one]
CN1CCC[C@@H](NC(=O)N2CCc3ccccc3C2c2ccc(C(F)(F)F)cc2)C1 (stereo partly drawn) [Example 32, N—((R)-1-Methylpiperidin-3-yl)-1-(4-(trifluoromethyl)phenyl)-3,4-dihydroisoquinoline-2(1H)-carboxamide]
CC(=O)OC(C)(C)C(=O)N1CCc2ccccc2[C@H]1c1ccc(C(F)(F)F)cc1 [Example 33, (R)-2-Methyl-1-oxo-1-(1-(4-(trifluoromethyl)phenyl)-3,4-dihydroisoquinolin-2(1H)-yl)propan-2-yl acetate]
CC(=O)N1CCc2ccccc2[C@H]1c1ccc(C(F)(F)F)cc1 [Example 34, (R)-1-(1-(4-(Trifluoromethyl)phenyl)-3,4-dihydroisoquinolin-2(1H)-yl)ethanone]
O=C(Nc1cncnc1)N1CCc2ccccc2[C@H]1c1ccc(C(F)(F)F)cc1 [Example 35, (R)—N-(Pyrimidin-5-yl)-1-(4-(trifluoromethyl)phenyl)-3,4-dihydroisoquinoline-2(1H)-carboxamide]
CC(C)NC(=O)N1CC(C)(C)c2ccccc2C1c1ccc(C(F)(F)F)cc1 (stereo not shown) [Example 36, N-Isopropyl-4,4-dimethyl-1-(4-(trifluoromethyl)phenyl)-3,4-dihydroisoquinoline-2(1H)-carboxamide]
CC1(C)CN(C(=O)Nc2ccc(F)cc2)C(c2ccc(C(F)(F)F)cc2)c2ccccc21 (stereo not shown) [Example 37, N-(4-Fluorophenyl)-4,4-dimethyl-1-(4-(trifluoromethyl)phenyl)-3,4-dihydro-isoquinoline-2(1H)-carboxamide]
C[C@H]1CN(C(=O)Nc2ccc(F)cc2)[C@H](c2ccc(C(F)(F)F)cc2)c2ccccc21 [Example 40, (1R,4R)—N-(4-Fluorophenyl)-4-methyl-1-(4-(trifluoromethyl)phenyl)-3,4-dihydroisoquinoline-2(1H)-carboxamide]
C[C@@H]1CN(C(=O)Nc2ccc(F)cc2)[C@@H](c2ccc(C(F)(F)F)cc2)c2ccccc21 [Example 41, (1S,4S)—N-(4-Fluorophenyl)-4-methyl-1-(4-(trifluoromethyl)phenyl)-3,4-dihydroisoquinoline-2(1H)-carboxamide]
O=C(Nc1ccc(F)cc1)N1CCc2c(F)cccc2C1c1ccc(C(F)(F)F)cc1 (stereo not shown) [Example 42, 5-Fluoro-N-(4-fluorophenyl)-1-(4-(trifluoromethyl)phenyl)-3,4-dihydroisoquinoline-2(1H)-carboxamide]
O=C(Nc1ccc(F)cc1)N1CCc2c(F)cccc2[C@H]1c1ccc(C(F)(F)F)cc1 [Example 43, (R)-5-Fluoro-N-(4-fluorophenyl)-1-(4-(trifluoromethyl)phenyl)-3,4-dihydro-isoquinoline-2(1H)-carboxamide]
O=C(Nc1ccc(F)cc1)N1CCc2cc(F)ccc2C1c1ccc(C(F)(F)F)cc1 (stereo not shown) [Example 44, 6-Fluoro-N-(4-fluorophenyl)-1-(4-(trifluoromethyl)phenyl)-3,4-dihydroisoquinoline-2(1H)-carboxamide]
O=C(Nc1ccc(F)cc1)N1CCc2ccc(F)cc2C1c1ccc(C(F)(F)F)cc1 (stereo not shown) [Example 45, 7-Fluoro-N-(4-fluorophenyl)-1-(4-(trifluoromethyl)phenyl)-3,4-dihydroisoquinoline-2(1H)-carboxamide]
N=C(N)N1CCc2ccccc2C1c1ccc(C(F)(F)F)cc1 (stereo not shown) [Example 46, 1-(4-(trifluoromethyl)phenyl)-3,4-dihydroisoquinoline-2(1H)-carboxamidine dihydrochloride]
O=C(c1ccoc1)N1CCc2ccccc2[C@H]1c1ccc(C(F)(F)F)cc1 [Example 47, (R)-Furan-3-yl(1-(4-(trifluoromethyl)phenyl)-3,4-dihydroisoquinolin-2(1H)-yl)methanone]
